# Assay results from publication PMC6787224.
# Sequences of proteins named here, by UniProt entry; tags and fusion partners are left off. Residues count along the entry.
# UniProt P07287, residues 1-290: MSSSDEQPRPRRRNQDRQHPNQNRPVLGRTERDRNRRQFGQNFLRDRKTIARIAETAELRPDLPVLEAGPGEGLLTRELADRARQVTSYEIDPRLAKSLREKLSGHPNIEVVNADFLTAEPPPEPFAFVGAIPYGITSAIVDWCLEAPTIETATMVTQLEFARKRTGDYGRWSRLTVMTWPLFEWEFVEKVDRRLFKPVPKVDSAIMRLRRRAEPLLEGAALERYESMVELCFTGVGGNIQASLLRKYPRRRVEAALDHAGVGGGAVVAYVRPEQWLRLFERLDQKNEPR
# No constants are given. Whether binding was seen depends on the method and setting.
# Biological target: C-terminally truncated ErmE (residues 1-290), N-terminally His8-tagged (Saccharopolyspora erythraea) (UniProt P07287)
# Assay: SEC; HiLoad 16/600 Superdex 75 pg; 20 mM Tris-SO4 pH 8, 0.3 M (NH4)2SO4, 2 mM beta-mercaptoethanol; 4 °C; both purified
substance,measurement,value
"C-terminally truncated ErmE (residues 1-290), N-terminally His8-tagged (from UniProt P07287 1-290) (enzyme)",binding,no binding
